Reference: the supplement of paper PMC10727501
Where a name gives a salt, the structure may show the parent alone. The list shows a part of the results. Repeats in this data set agree poorly, so a single value says little.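 Free-swimming zebrafish larvae were scored for O-bend response probability to dark flashes (naive: first five; training: remaining flashes of four 60-flash blocks; test: later 60-flash block) and for turning toward alternating leftward/rightward LED motion (OMR). Six treated larvae were compared with sixty 0.1% DMSO controls; |SSMD|≥2 defined a hit.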

Tests used:
Conditions in all cases: 10 µM; pre-incubation: 30-90 min
[1] = tested on: Danio rerio larvae (5 dpf, TLF); assay: OMR-Perf (SSMD vs DMSO vehicle); higher = higher than vehicle (e.g. higher dark-flash O-bend response probability, or better optomotor performance)
[2] = tested on: Danio rerio larvae (5 dpf, TLF); assay: Prob-Test (SSMD vs DMSO vehicle); higher = higher than vehicle (e.g. higher dark-flash O-bend response probability, or better optomotor performance)
[3] = tested on: Danio rerio larvae (5 dpf, TLF); assay: Prob-Naive (SSMD vs DMSO vehicle); higher = higher than vehicle (e.g. higher dark-flash O-bend response probability, or better optomotor performance)
[4] = tested on: Danio rerio larvae (5 dpf, TLF); assay: Prob-Train (SSMD vs DMSO vehicle); higher = higher than vehicle (e.g. higher dark-flash O-bend response probability, or better optomotor performance)

Compound | OMR-Perf [1] | Prob-Test [2] | Prob-Naive [3] | Prob-Train [4]
Cc1ccc(-n2nccn2)c(C(=O)N2CCN(c3nc4cc(Cl)ccc4o3)CC[C@H]2C)c1 [Suvorexant (MK-4305)] | -1 | -1.71 | -4.98 | -2.51
COc1ccc(CC2NCCc3cc(OC)c(OC)cc32)cc1OC.Cl (configuration not stated) [Tetrahydropapaverine HCl] | 0.0894 | -0.0643 | 0.146 | -0.3
COc1cc(OC)c(OC)cc1C=O [Asaraldehyde] | 0.0142 | 0.802 | 0.13 | 0.0521
Cn1cc(C2=C(c3cn(C4CCN(Cc5ccccn5)CC4)c4ccccc34)C(=O)NC2=O)c2ccccc21 | 0.0725 | -0.0766 | -0.414 | -0.471
Cc1sc2c(c1C)C(c1ccc(Cl)cc1)=N[C@H](CC(=O)OC(C)(C)C)c1nnc(C)n1-2 | 0.0104 | 0.00472 | -2.44 | -1.1
CCN(CC)C(=O)c1ccc(C2=CC3(CCNCC3)Oc3cccc(O)c32)cc1.Cl | 0.114 | -0.0907 | 0.357 | 0.273
C[C@]12C/C(=C\O)C(=O)C[C@@H]1CC[C@@H]1[C@H]2CC[C@@]2(C)[C@H]1CC[C@@]2(C)O [Oxymetholone] | -0.0714 | 0.452 | -1.06 | 0.0679
CN1[C@@H]2CC[C@H]1CC(OC(=O)C1C=Nc3ccccc31)C2.Cl (some centres not stated) [Tropisetron] | 0.431 | 0.665 | 0.357 | 0.654
CN(C)C(=O)Oc1cccc([N+](C)(C)C)c1.[Br-] [Neostigmine bromide (Prostigmin)] | -0.0209 | -0.439 | -0.337 | -0.128
O=C1CCC[C@@H]2[C@@H]3CCCN4CCC[C@H](CN12)[C@@H]34 [(+)-Matrine] | 0.0564 | 0.424 | 0.394 | 0.259
O.O=P1(N(CCCl)CCCl)NCCCO1 (configuration not stated) [Cyclophosphamide monohydrate] | -0.344 | -0.166 | 0.106 | -0.632
O=C(O[C@H]1C[C@H]2CC[C@@H](C1)[N+]21CCCC1)C(O)(c1ccccc1)c1ccccc1.[Cl-] [Trospium chloride] | -0.207 | -0.182 | 0.611 | -0.0377
CN1c2ccccc2C(NCCCCCCC(=O)[O-])c2ccc(Cl)cc2S1(=O)=O.[Na+] (configuration not stated) [Tianeptine sodium] | -0.424 | -0.423 | 0.153 | -0.353
Cc1sc2c(c1C)C(c1ccc(Cl)cc1)=NC(CC(N)=O)c1nnc(C)n1-2 (configuration not stated) | -0.0897 | 0.577 | 0.146 | 0.409
O=C(O)C=CC(=O)O.O=C(O)C=CC(=O)O.c1ccc2nc(N3CCNCC3)ccc2c1 [Quipazine Maleate] | 0.318 | 0.121 | -0.048 | -0.0126
CNC(=O)Oc1ccc2c(c1)[C@]1(C)CCN(C)C1N2C.O=C(O)c1ccccc1O (some centres not stated) [Physostigmine Salicylate] | -0.121 | -0.0698 | 0.433 | 0.728
C[C@]12CC[C@@H]3[C@@H](CC[C@@]45O[C@@H]4C(O)=C(C#N)C[C@]35C)[C@@H]1CC[C@H]2O [Trilostane] | -0.437 | -0.148 | -0.265 | -0.379
C/C=C(\C)C(=O)N[C@@H](c1ccccc1)[C@@H](O)C(=O)O[C@H]1C[C@@]2(O)[C@@H](OC(=O)c3ccccc3)[C@@H]3[C@]4(OC(C)=O)CO[C@@H]4C[C@@H](O)[C@@]3(C)C(=O)[C@@H](OC(C)=O)C(=C1C)C2(C)C [Cephalomannine] | -0.315 | 0.227 | 0.146 | 0.308
CCN1CCN(C(=O)Cc2ccc(Nc3ncc(F)c(Nc4ccc(C(=O)Nc5ccccc5Cl)cc4)n3)cc2)CC1 [Aurora A Inhibitor I] | 0.424 | -0.229 | -0.525 | -0.618
CC(=O)OC1CN2CCC1CC2.Cl (configuration not stated) [Aceclidine HCl] | -0.018 | -0.557 | -0.0507 | -0.347
CN1CCN(c2nc3ccccc3nc2Cl)CC1 | -0.0683 | 0.416 | 0.213 | 0.169
O=C1C=CC[C@@H]2[C@@H]3CCCN4CCC[C@@H](CN12)[C@@H]34 [Sophocarpine] | -0.119 | -0.402 | 0.146 | -0.244
Cc1cc2c(C(C)C)c(O)c(O)c(C=O)c2c(O)c1-c1c(C)cc2c(C(C)C)c(O)c(O)c(C=O)c2c1O [Gossypol] | 0.251 | -0.745 | 0.773 | 0.161
C[C@@H]1[C@H](O)[C@@H](C)/C=C/C=C/CC/C=C/C=C/C=C/C=C/[C@H](O[C@H]2O[C@@H](C)[C@H](O)[C@@H](N)[C@H]2O)C[C@@H]2O[C@@](O)(C[C@@H](O)[C@@H](O)CC[C@@H](O)C[C@@H](O)C[C@@H](O)CC(=O)O[C@H]1C)C[C@H](O)[C@H]2C(=O)O [Nystatin (Fungicidin)] | -1.18 | 0.602 | -0.171 | 0.709

A few values from the list.
Prob-Test [2], `CCN(CC)C(=O)c1ccc(C2=CC3(CCNCC3)Oc3cccc(O)c32)cc1.Cl` is entered as -0.0907
Prob-Train [4], `CN(C)C(=O)Oc1cccc([N+](C)(C)C)c1.[Br-]` [Neostigmine bromide (Prostigmin)] is entered as -0.128

Later entries:

Compound | OMR-Perf [1] | Prob-Test [2] | Prob-Naive [3] | Prob-Train [4]
O=c1ccc2cc(O[C@@H]3O[C@H](CO)[C@@H](O)[C@H](O)[C@@H]3O)c(O)cc2o1 [Esculin] | -0.553 | 0.208 | 0.517 | 0.465
CC(=O)OCC1=C(C(=O)O)N2C(=O)[C@H](N)[C@H]2SC1 [7-Aminocephalosporanic acid] | 0.049 | -0.0889 | -0.207 | -0.0193
C=CCN1CC[C@]23c4c5ccc(O)c4O[C@H]2C(=O)CC[C@@]3(O)[C@H]1C5.Cl [Naloxone HCl] | -0.746 | -0.785 | 5.13e-16 | -1.16
CNCC(=O)c1ccc(O)c(O)c1.Cl [Adrenalone HCl] | -0.434 | 0.0747 | 0.186 | 0.532
Br.COC(=O)C1=CCCN(C)C1 [Arecoline] | -0.499 | 0.484 | 0.374 | 0.814
COc1cc(-n2c(S)nc3ccccc3c2=O)c(Cl)cc1Cl [Mdivi-1] | -0.692 | -1.01 | -1.01 | -2.17
CC(=O)Nc1ccc(Cc2ccc(NC(C)=O)cc2)cc1 | -0.387 | -0.262 | 0.134 | -0.0425
CC[N+]1(C)CCCC(OC(=O)C(O)(c2ccccc2)c2ccccc2)C1.[Br-] (configuration not stated) [Pipenzolate Bromide] | -0.203 | -0.66 | 0.457 | -0.236
O=[N+]([O-])c1ccc([As](=O)(O)O)cc1 [Nitarsone] | -0.142 | -0.277 | -0.0762 | -0.935
CN(C)C(=O)Oc1ccc[n+](C)c1.[Br-] [Pyridostigmine Bromide] | -0.158 | 0.193 | 0.759 | 0.00914
CCC(COC(=O)c1cc(OC)c(OC)c(OC)c1)(c1ccccc1)N(C)C (configuration not stated) [Trimebutine] | -0.672 | -0.346 | -1.08 | -0.691
COc1ccc(C(=O)N2CCCC2=O)cc1 [Aniracetam] | 0.069 | -0.462 | 0.614 | 0.179
CC(=O)Nc1cc([As](=O)(O)O)ccc1O [Acetarsone] | -0.498 | 0.422 | 0.298 | 0.163
COc1cc2c(cc1OC)[C@@]13CCN4CC5=CCO[C@H]6CC(=O)N2[C@H]1[C@H]6[C@H]5C[C@H]43 [Brucine] | -0.0963 | 0.946 | 0.0283 | 0.63
Cc1ccccc1-n1c(Cn2cnc3c(N)ncnc32)nc2cccc(C)c2c1=O | 0.279 | 0.206 | 0.26 | -0.0433
CN1[C@@H]2CC[C@H]1C[C@@H](OC(=O)C(CO)c1ccccc1)C2.CN1[C@@H]2CC[C@H]1C[C@@H](OC(=O)C(CO)c1ccccc1)C2.O.O=S(=O)(O)O (some centres not stated) [Atropine] | 0.147 | -0.447 | 0.028 | -0.5
C[C@@H]1C(=O)O[C@@H]2O[C@@]3(C)CC[C@H]4[C@@H](C)CC[C@@H]1[C@@]24OO3 [Artemisinin] | 0.0942 | -0.0968 | 0.255 | -0.00763
O=C(O)c1nn(Cc2ccc(Cl)cc2Cl)c2ccccc12 [Lonidamine] | -0.305 | -1.27 | 0.335 | -0.684
C=C1CCC2(O)C3Cc4ccc(O)c5c4C2(CCN3CC2CC2)C1O5.Cl (configuration not stated) [Nalmefene HCl] | -0.259 | -1.44 | -0.444 | -2.1
C=CCN.Cl.ClCC1CO1 (configuration not stated) [Sevelamer HCl] | 0.447 | -0.0469 | -0.0609 | -0.0021
Nc1nc(N)nc(NC2CC2)n1 [Cyromazine] | -0.218 | 0.156 | -0.34 | -0.126
CN1CCc2cc3c(cc2C1O)OCO3 (configuration not stated) [Hydrastinine HCl] | -0.446 | -0.139 | -0.154 | -0.188
N#CC(C#N)=Cc1ccc(O)c(O)c1 | 0.0714 | -0.454 | 0.135 | 0.202
CCc1c(C(=O)C(N)=O)c2c(OCC(=O)O)cccc2n1Cc1ccccc1 | -0.604 | -0.0785 | 0 | -0.167
